Data as given in PubChem BioAssay AID504793 (Drosophila RNAi Screening Center, 2011).

- Assay: 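Knock-downs allowing continued mitosis even though DNA is damaged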 (primary screen)
- Cells: Drosophila S2R+ cells
- Reagents: long dsRNA against Drosophila genes, about 0.25 µg dsRNA per well
- Time to read-out: 4 days of dsRNA, then 4 hours of drug before read-out
- Treatment: doxorubicin 0.5 µM for 4 hours to cause double-strand breaks, in cells also given a low, harmless dose of dsRNA against nbs to sensitise the assay
- Read-out: 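Per-well count of mitotic cells stained for phospho-histone H3 after doxorubicin exposure, used as mitotic index; counts are raw and not normalised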
- Direction: mitotic cells: higher = more cells in mitosis, weaker G2 arrest
- Hit rule: 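a call needs confirmation in secondary tests, with other dsRNAs and a check of mitotic timing without damage, not just a high primary count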
- Calls: active = confirmed in follow-up tests; inactive = not confirmed
The screen tested about 23,000 reagents; shown is a random part of those that have a named target and a result. Over the whole deposit, 62 (0.27%) were called active. 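Calls come from follow-up tests whose scores are not deposited, so confirmed genes may have low counts here; counts are not normalised per plate.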 Raw values are not corrected between plates. Unmarked entries are inactive. Names joined by + are all predicted targets of the reagent.

Target gene | dsRNA | mitotic cells, replicate 1 | mitotic cells, replicate 2
RNF220 (GeneID 42690) | DRSC15652 | 9 | –
RNF220 (GeneID 42690) | DRSC28017 | 7 | –
tio (GeneID 44272) | DRSC03739 | 5 | –
HPS4 (GeneID 37009) | DRSC06906 | 6 | –
CG12688 (retired record) (GeneID 31378) | DRSC17877 | 9 | 3
CG12688 (retired record) (GeneID 31378) | DRSC17878 | 16 | 13
TwdlU (GeneID 5740279) | DRSC12224 | 4 | –
TwdlU (GeneID 5740279) | DRSC29063 | 6 | –
CG9389 (GeneID 40347) | DRSC11857 | 2 | –
alphaTub84D (GeneID 40904) | DRSC12623 | 95 | –
alphaTub84D (GeneID 40904) | DRSC23498 | 9 | –
phyl (GeneID 36606) | DRSC07663 | 5 | –
phyl (GeneID 36606) | DRSC24829 | 4 | –
CG9095 (GeneID 32447) | DRSC20150 | 19 | –
Ubr1 (GeneID 32687) | DRSC20148 | 5 | –
Jhbp7 (GeneID 43035) | DRSC14408 | 4 | –
Jhbp7 (GeneID 43035) | DRSC25905 | 9 | –
c11.1 (GeneID 53436) | DRSC18749 | 14 | –
Cpr62Ba (GeneID 38239) | DRSC08403 | 8 | –
su(f) (GeneID 3354994) | DRSC20907 | 8 | –
7SLRNA:CR42652 + 7SLRNA:CR32864 | DRSC22968 | 12 | –
Cyp305a1 (GeneID 40161) | DRSC11126 | 8 | –
mtd (GeneID 45467) | DRSC12131 | 9 | –
mtd (GeneID 45467) | DRSC12380 | 6 | –
mtd (GeneID 45467) | DRSC12381 | 4 | –
mtd (GeneID 45467) | DRSC29132 | 2 | –
Sr-CIV (GeneID 33576) | DRSC00575 | 5 | –
Sr-CIV (GeneID 33576) | DRSC24930 | 13 | –
Rab27 (GeneID 31103) | DRSC18567 | 7 | –
CG13724 (GeneID 39927) | DRSC10053 | 4 | –
CG13724 (GeneID 39927) | DRSC25395 | 2 | –
jtb (GeneID 36838) | DRSC06868 | 9 | –
Septin1 (GeneID 33114) | DRSC20573 | 7 | –
snu (GeneID 43391) | DRSC16589 | 6 | –
Muc55B (GeneID 37057) | DRSC21440 | 8 | –
Muc55B (GeneID 37057) | DRSC27913 | 11 | –
CG9270 (GeneID 35366) | DRSC03182 | 3 | –
CAH4 (GeneID 42965) | DRSC22433 | 3 | –
CG42296 (GeneID 53544) | DRSC00394 | 9 | –
Gr22a (GeneID 117500) | DRSC22283 | 7 | –
Gr22a (GeneID 117500) | DRSC26809 | 4 | –
wus (GeneID 32683) | DRSC20278 | 3 | –
CG14325 (GeneID 42123) | DRSC14804 | 12 | –
Naa80 (GeneID 41195) | DRSC16429 | 5 | –
Naa80 (GeneID 41195) | DRSC28038 | 5 | –
cib (GeneID 31359) | DRSC18660 | 5 | 3
CG2747 (GeneID 40950) | DRSC15450 | 5 | –
mRpL32 (GeneID 43698) | DRSC14479 | 17 | –
CG6791 (GeneID 41391) | DRSC16118 | 6 | –
CG6791 (GeneID 41391) | DRSC29079 | 10 | –
Hacl (GeneID 37285) | DRSC06061 | 3 | –
MED1 (GeneID 40403) | DRSC11808 | 9 | –
CG9541 (GeneID 34220) | DRSC03257 | 1 | –
Slc25A46b (GeneID 35081) | DRSC02888 | 5 | –
Semp1 (GeneID 34914) | DRSC01874 | 5 | –
CdGAPr (GeneID 35267) | DRSC03289 | 3 | –
CG17105 (GeneID 34466) | DRSC02574 | 6 | –
CG17105 (GeneID 34466) | DRSC26156 | 8 | –
sesB (GeneID 32007) | DRSC20371 | 8 | –
sesB (GeneID 32007) | DRSC29874 | 17 | –
CD98hc (GeneID 40941) | DRSC15453 | 6 | –
cac (GeneID 32158) | DRSC19743 | 11 | –
cac (GeneID 32158) | DRSC20354 | 4 | –
cac (GeneID 32158) | DRSC39146 | 2 | –
IP3K2 (GeneID 32285) | DRSC19500 | 6 | –
IP3K2 (GeneID 32285) | DRSC19747 | 6 | –
IP3K2 (GeneID 32285) | DRSC22614 | 9 | –
IP3K2 (GeneID 32285) | DRSC24796 | 10 | –
IP3K2 (GeneID 32285) | DRSC27191 | 11 | –
CG3847 (GeneID 31577) | DRSC17444 | 17 | –
CG3847 (GeneID 31577) | DRSC18327 | 27 | –
CG3847 (GeneID 31577) | DRSC26193 | 12 | –
PGRP-SD (GeneID 38858) | DRSC10856 | 2 | –
CG16865 (GeneID 34788) | DRSC01904 | 6 | –
EbpIII (GeneID 49821) | DRSC04638 | 8 | –

Sorted by “mitotic cells, replicate 1” (highest first): 10 of the entries above
Target gene | dsRNA | mitotic cells, replicate 1 | mitotic cells, replicate 2
Muc55B (GeneID 37057) | DRSC27913 | 11 | –
CG42296 (GeneID 53544) | DRSC00394 | 9 | –
Muc55B (GeneID 37057) | DRSC21440 | 8 | –
Septin1 (GeneID 33114) | DRSC20573 | 7 | –
Gr22a (GeneID 117500) | DRSC22283 | 7 | –
snu (GeneID 43391) | DRSC16589 | 6 | –
Gr22a (GeneID 117500) | DRSC26809 | 4 | –
CG9270 (GeneID 35366) | DRSC03182 | 3 | –
CAH4 (GeneID 42965) | DRSC22433 | 3 | –
wus (GeneID 32683) | DRSC20278 | 3 | –
